Experimental data reported in article PMC8620495.
No constants are given. Whether binding was seen depends on the method and setting. Binding seen in cells or lysates may run through a third protein. Some binding calls cover weakened binding; strength is not graded here.

Sequences of proteins named here, by UniProt entry; tags and fusion partners are left off. A change or cut given only in a name is not applied to a line headed by its entry. A line that says so, or that is headed by a name, gives the form on record, which may keep a tag or linker.
UniProt Q99683: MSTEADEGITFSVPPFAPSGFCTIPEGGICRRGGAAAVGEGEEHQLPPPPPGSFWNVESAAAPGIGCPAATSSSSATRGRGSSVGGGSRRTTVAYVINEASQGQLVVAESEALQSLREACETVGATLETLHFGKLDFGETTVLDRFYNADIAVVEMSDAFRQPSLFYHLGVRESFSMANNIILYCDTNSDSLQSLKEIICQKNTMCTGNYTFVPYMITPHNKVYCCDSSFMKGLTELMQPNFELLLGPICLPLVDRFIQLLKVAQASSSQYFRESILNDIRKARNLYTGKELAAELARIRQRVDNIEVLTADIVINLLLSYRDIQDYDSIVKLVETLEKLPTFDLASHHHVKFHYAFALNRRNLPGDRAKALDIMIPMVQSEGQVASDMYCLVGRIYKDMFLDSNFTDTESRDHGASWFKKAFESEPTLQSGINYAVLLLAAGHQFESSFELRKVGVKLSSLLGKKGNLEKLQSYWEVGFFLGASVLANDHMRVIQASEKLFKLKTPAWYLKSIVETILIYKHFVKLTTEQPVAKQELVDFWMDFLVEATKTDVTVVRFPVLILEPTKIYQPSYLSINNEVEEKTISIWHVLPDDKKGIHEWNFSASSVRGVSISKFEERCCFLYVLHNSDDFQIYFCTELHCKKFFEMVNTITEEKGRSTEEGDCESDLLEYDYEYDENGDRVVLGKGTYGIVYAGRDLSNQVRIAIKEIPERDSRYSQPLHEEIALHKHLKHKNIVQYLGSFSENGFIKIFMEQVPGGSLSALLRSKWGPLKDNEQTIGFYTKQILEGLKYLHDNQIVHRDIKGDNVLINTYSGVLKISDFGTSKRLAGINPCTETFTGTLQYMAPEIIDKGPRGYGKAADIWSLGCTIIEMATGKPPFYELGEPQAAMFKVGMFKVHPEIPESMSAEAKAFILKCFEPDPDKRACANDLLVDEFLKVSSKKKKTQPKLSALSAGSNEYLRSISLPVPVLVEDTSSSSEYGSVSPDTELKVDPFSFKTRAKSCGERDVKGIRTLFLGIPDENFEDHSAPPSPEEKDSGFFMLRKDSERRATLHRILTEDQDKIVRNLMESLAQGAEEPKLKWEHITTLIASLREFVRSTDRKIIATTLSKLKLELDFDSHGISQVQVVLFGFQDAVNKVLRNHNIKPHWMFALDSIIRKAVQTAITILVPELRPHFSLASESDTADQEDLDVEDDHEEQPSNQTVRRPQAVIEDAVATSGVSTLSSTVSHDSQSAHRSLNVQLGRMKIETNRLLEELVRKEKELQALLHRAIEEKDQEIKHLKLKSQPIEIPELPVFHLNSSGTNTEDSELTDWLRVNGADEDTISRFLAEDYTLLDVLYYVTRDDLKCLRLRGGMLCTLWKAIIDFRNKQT
HA-NEDD4 (P46934-4, form named): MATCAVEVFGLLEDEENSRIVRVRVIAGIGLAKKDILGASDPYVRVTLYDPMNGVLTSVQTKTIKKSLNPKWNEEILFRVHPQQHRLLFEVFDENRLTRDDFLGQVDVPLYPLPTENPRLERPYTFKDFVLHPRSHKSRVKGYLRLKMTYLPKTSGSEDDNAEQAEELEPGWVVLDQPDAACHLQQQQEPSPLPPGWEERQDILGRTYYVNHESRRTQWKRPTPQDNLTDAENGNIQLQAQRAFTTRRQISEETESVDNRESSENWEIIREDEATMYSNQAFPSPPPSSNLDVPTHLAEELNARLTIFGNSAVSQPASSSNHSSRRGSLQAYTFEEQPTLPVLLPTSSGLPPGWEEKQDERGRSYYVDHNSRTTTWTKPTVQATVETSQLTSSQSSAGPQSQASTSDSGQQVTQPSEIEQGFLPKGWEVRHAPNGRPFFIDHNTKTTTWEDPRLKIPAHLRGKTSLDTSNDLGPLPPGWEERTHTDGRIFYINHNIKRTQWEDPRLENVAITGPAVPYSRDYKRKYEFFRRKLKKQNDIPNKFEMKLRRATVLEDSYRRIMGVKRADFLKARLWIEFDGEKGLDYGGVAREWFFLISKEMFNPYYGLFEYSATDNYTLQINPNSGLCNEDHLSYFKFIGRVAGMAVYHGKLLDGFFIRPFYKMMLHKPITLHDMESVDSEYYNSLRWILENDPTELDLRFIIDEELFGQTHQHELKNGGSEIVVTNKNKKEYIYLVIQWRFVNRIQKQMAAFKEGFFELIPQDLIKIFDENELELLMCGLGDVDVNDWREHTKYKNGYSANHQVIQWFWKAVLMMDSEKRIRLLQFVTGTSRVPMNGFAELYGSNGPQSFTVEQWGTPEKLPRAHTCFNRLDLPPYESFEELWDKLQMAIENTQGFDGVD

Tests used:
Test in all cases: co-IP; co-expressed in HEK293T cells; Myc-MEKK5 or mutants immunoprecipitated with anti-Myc antibody and protein A-Sepharose beads (4 °C, 3 h, four washes with lysis buffer); co-precipitated ligases detected by blot with anti-HA or anti-NEDD4
[1] = biological target: Myc-MEKK5-K709A (UniProt Q99683)
[2] = biological target: Myc-MEKK5 (UniProt Q99683)
[3] = biological target: Myc-MEKK5-Y882A (UniProt Q99683)

Measured: binding

HA-NEDD4 (from UniProt P46934-4 1-900)
binds: all assays above
